Consider two molecules from patent US20250205375A1, “HER3 RADIOIMMUNOTHERAPY FOR THE TREATMENT OF SOLID CANCERS” (ACTINIUM PHARMACEUTICALS, INC., priority 2023, published 2025).

Amino acid sequences for entries named in this document (tags omitted). A change or cut given only in a name is not applied to a line headed by its entry.
UniProt P21860: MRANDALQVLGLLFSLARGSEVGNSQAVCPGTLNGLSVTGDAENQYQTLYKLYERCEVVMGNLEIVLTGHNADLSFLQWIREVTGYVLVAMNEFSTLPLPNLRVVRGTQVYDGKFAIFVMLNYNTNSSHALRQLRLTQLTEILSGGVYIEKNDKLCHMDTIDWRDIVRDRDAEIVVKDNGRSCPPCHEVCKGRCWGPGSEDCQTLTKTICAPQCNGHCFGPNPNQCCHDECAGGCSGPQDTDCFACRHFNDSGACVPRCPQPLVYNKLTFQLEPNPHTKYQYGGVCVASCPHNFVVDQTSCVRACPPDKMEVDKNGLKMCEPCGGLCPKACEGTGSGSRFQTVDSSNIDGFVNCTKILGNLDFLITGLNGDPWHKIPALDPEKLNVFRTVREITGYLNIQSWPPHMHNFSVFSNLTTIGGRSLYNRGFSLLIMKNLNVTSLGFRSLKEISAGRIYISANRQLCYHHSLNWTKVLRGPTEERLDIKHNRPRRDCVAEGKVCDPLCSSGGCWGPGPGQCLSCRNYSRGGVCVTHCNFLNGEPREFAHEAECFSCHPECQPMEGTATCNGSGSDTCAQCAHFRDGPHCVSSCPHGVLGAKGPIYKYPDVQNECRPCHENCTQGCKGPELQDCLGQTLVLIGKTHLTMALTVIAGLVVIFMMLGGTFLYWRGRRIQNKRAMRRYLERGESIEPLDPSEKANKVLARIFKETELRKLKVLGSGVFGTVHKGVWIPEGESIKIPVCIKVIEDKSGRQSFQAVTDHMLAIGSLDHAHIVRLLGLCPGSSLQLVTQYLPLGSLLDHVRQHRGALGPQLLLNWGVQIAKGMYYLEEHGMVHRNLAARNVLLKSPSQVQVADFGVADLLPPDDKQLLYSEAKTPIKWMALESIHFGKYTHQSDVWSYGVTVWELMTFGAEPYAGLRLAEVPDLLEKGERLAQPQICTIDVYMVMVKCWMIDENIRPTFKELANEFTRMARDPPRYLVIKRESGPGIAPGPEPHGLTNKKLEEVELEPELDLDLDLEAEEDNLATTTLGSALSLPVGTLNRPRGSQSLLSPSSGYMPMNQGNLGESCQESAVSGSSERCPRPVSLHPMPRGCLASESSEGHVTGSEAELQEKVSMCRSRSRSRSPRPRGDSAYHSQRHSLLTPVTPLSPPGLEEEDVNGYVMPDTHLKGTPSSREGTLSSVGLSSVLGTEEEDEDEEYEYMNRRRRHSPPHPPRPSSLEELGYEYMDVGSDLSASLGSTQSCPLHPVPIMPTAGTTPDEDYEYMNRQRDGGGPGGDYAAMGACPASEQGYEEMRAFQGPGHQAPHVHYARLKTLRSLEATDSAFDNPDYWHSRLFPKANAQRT

The target of this experiment is human HER3 on HER3-positive human cancer cell lines (NCI-H1975, BxPC-3, DU145, 22RV1, LnCAP) (human) (UniProt P21860). As to the kind of experiment: fluorescence flow cytometry cell binding assay on DU145, 22RV1 and LnCAP cells. Background: In flow cytometry, cells or beads pass a laser one at a time.

These are yes or no findings as the source states them, for the method shown. Some results given as binding are weak or reduced against the parent protein; the word gives no strength.

B1: AV-203 (naked, unlabeled anti-HER3 monoclonal antibody) (antibody, V domains shown)
VH: QVQLVESGGGLVKPGGSLRLSCAASGFTFSDYAMSWIRQAPGKGLEWVSTISDGGTYTYYPDSVKGRFTISRDNAKNSLYLQMNSLRAEDTAVYYCAREWGDYDGFDYWGQGTLVTVSS
VL: DIQMTQSPSSLSASVGDRVTITCRASQEISGYLSWYQQKPGKAPKRLIYAASTLDSGVPSRFSGSGSGTEFTLTISSLQPEDFATYYCLQYDSYPYTFGQGTKLEIK
As for B1, the binding entry is “binds”.

B2: AV-203, DOTA-conjugated (p-SCN-Bn-DOTA-conjugated anti-HER3 monoclonal antibody) (antibody, V domains shown)
VH: B1 VH
VL: B1 VL
modifications: p-SCN-Bn-DOTA-conjugated; sites not stated
Consider B2, for which the binding entry is on record as “binds”.
